The record followed here is paper PMC6218562.

These are yes or no findings as the source states them, for the method shown. Binding seen in cells or lysates may run through a third protein. Binding can be weak; no strength is given.

The target in this experiment is T1, Trf4 (S. cerevisiae (endogenous in yeast cells)) (UniProt P53632).
T1 sequence: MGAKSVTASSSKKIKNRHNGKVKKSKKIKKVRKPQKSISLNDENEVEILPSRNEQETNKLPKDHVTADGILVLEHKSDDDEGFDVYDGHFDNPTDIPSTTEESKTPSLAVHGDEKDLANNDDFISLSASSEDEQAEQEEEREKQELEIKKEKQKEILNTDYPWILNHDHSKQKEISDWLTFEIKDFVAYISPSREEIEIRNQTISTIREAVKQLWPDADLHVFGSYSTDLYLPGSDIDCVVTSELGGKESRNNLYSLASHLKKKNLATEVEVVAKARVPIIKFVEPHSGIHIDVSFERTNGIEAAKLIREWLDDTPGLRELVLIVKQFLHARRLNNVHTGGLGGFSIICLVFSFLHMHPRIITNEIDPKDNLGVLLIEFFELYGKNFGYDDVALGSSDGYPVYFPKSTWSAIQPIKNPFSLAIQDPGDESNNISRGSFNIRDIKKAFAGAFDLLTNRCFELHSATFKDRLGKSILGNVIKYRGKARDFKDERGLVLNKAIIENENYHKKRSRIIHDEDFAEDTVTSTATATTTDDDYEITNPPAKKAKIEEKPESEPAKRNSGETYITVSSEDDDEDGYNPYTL
In words: co-IP; non-TAP co-IP from cleared yeast lysates of Pbp1-1Q and Pbp1-30Q cells: 2 μg antibody 2 h at 4 °C, then Protein-A sepharose beads 1 h at 4 °C; same lysis buffer; western blot. A general note: In western blotting, separated proteins are transferred to a membrane and probed.

Ty1 Gag protein (S. cerevisiae): the binding entry is on record as “binds”.
